The values below come from the supplement of paper PMC11732987, “Enantioselective OTUD7B fragment discovery through chemoproteomics screening and high-throughput optimisation” (Communications Chemistry, 2025).

The other results are listed elsewhere or left out. The data scatter; read single values as rough.

Compound in the test: ClCC(=O)N[C@H]1CCCc2ccccc12
The experiment in a line: log2 mean competition ratio of IA-DTB cysteine labelling (DMSO/compound) (log2 ratio); higher = stronger cysteine engagement by compound. Conditions: 200 µM; treatment time: 4 h; cell line lysate: HEK293T. How it is done: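 IA-DTB competitive cysteine chemoproteomics in HEK293T RIPA lysate. Lysates were treated with compound 29 or 30 at 50 or 200 µM for 4 h, then IA-DTB (500 µM, 1 h), trypsin-digested, NeutrAvidin-enriched and analysed by diaPASEF. Competition ratio = intensity DMSO / intensity compound (n=4 treated, n=64 DMSO); binding: mean log2 CR ≥ 1 and p ≤ 0.05 plus QC filters. Target is the cysteine site.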
As to NKRF C386 (UniProt O15226), the “log2 mean competition ratio” value was -0.0536.
To NF1 C324 (UniProt P21359) belongs -0.209; to NOL6 C1034 (UniProt Q9H6R4), 0.484; to NFKB2 C738 (UniProt Q00653), 0.142.
To NIPBL C1971 (UniProt Q6KC79) belongs -0.0514.
To NCAPG C177 (UniProt Q9BPX3) belongs 0.0084; to NIT2 C44 (UniProt Q9NQR4), -0.0647.
Consider NAT10 C658 (UniProt Q9H0A0), for which the “log2 mean competition ratio” value stood at 0.3.
The result for NCDN C22 (UniProt Q9UBB6) reads 0.144; that for NCKAP1 C556 (UniProt Q9Y2A7), -0.347.
The result for NFKB2 C83 (UniProt Q00653) reads 0.408.
In the case of NDUFA11 C18 (UniProt Q86Y39), the “log2 mean competition ratio” value came out at 0.425.
The result for NAXE C283 (UniProt Q8NCW5) reads -0.187; that for NFKB2 C57 (UniProt Q00653), -0.114; that for NDC1 C369 (UniProt Q9BTX1), -0.316.
To NME2 C145 (UniProt P22392) belongs -0.0717; to NAT10 C746 (UniProt Q9H0A0), 0.371; to NF1 C904 (UniProt P21359), 0.174.
On to NHSL1 C268 (UniProt Q5SYE7), for which the “log2 mean competition ratio” value turned out to be 0.229.
To NOP56 C211 (UniProt O00567) belongs 0.283; to NCK1 C139 (UniProt P16333), 0.0884; to NCOA3 C716 (UniProt Q9Y6Q9), -0.17.
The result for NOPCHAP1 C13 reads -0.0286.
To NEK7 C298 (UniProt Q8TDX7) belongs 0.116; to NASP C84 (UniProt P49321), 0.118.
In the case of NCDN C491 (UniProt Q9UBB6), the “log2 mean competition ratio” value was determined as 0.0415.
To NEK9 C556 (UniProt Q8TD19) belongs 0.0514.
